# Experimental data: PubChem BioAssay AID1508588 (Peter MacCallum Cancer Centre, 2020)
# Test: 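Knock-downs boosting vemurafenib effects on melanoma cell growth or lactate release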 (primary screen)
# Cell system: human WM266.4 melanoma cells (BRAF V600 mutant)
# Knock-down reagent: siRNA pool against human genes, 40 nM
# Time to read-out: 96 h from transfection to read-out
# Conditions: vemurafenib 300 nM (about IC25), added 48 h after transfection, for 48 h; comparison arm got DMSO vehicle only
# Measurement: 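Ratios to non-targeting siRNA for cell gain, counted as DAPI nuclei after minus before drug and averaged over two replicates, and for absorbance-read medium lactate per cell; both binned into fold-change classes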
# Reading the numbers: cell gain with vemurafenib: higher = more cell gain than with non-targeting siRNA; lactate per cell with vemurafenib: higher = more lactate made per cell
# Call rule: 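Enhancement is called by pairing each knock-down's vehicle-arm and drug-arm fold-change classes for viability or glycolysis; which class combinations qualify is not given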
# Calls: active = enhances vemurafenib effect; inactive = no enhancement seen
# Here is one part, drawn at random, of about 18,000 deposited reagents. 790 of all reagents (4.4%) were called active. 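Calls rest on a combination of fold-change classes in drug and vehicle arms, not all shown here.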
Gene,cell gain with vemurafenib,lactate per cell with vemurafenib,call
PDIA4,0.51,1.57,inactive
SLK,0.38,1.68,inactive
UCHL3,0.88,0.88,inactive
AGTR2,0.64,0.25,inactive
XRCC2,0.97,0.2,inactive
SLAMF6,0.39,1.17,inactive
ZHX2,0.38,1.75,inactive
SLC8A1,0.56,1.04,inactive
CCL25,0.42,1.33,inactive
BDKRB1,1.07,0.84,inactive
ANKRD55,0.84,0.8,inactive
RAB3IP,0.56,0.84,inactive
PPP2R5B,0.67,0.86,inactive
ARHGAP28,0.14,0.77,inactive
SBK1,0.37,1.82,inactive
ATP10D,0.63,0.96,inactive
TMEM129,0.69,1.67,inactive
ERG28,0.28,2.52,inactive
CHRNA3,0.38,1.56,inactive
SLC47A1,0.55,0.84,inactive
SLC22A16,0.14,1.89,inactive
CETN3,0.26,0.72,inactive
ATP1A3,0.81,0.98,inactive
POPDC2,0.89,0.82,inactive
GADD45GIP1,0.83,0.8,inactive
LORICRIN,0.78,2.13,inactive
ADAMTS12,0.69,0.52,inactive
RDX,0.36,0.43,inactive
HEXD,0.59,1.76,inactive
MBD1,0.76,0.97,inactive
NPHP3,0.83,1.06,inactive
RAB11FIP3,0.46,0.58,inactive
HNF4G,0.85,0.92,inactive
IRAG2,0.92,0.6,inactive
CXXC4,0.39,1.73,inactive
PRR14L,0.52,0.62,inactive
SPMAP1,0.31,0.9,inactive
BCL3,0.29,2,inactive
KRTAP12-2,0.88,0.63,inactive
GP6,0.92,0.74,inactive
NEK11,0.22,0.96,inactive
RFC4,0.48,0.35,inactive
EDN3,0.11,0.2,active
CHRNA4,0.57,1.11,inactive
RTCA,0.6,1.05,inactive
UBB,-0.04,2.92,inactive
ACOT8,0.35,1.58,inactive
IPO8,0.72,0.33,inactive
EEF1D,1.14,0.34,inactive
TXNDC11,0.24,1.4,inactive
NOMO2,0.9,0.68,inactive
MROH9,0.81,0.86,inactive
EMP2,0.82,1.34,inactive
ARL14,-0.11,0.16,active
STX1A,0.94,0.7,inactive
ZER1,0.7,1.08,inactive
NR1H2,0.34,1.83,inactive
PLCH1,0.96,1.22,inactive
PRDM12,1.34,0.74,inactive
TEAD4,0.69,1.05,inactive
C1orf115,0.57,0.72,inactive
MTARC2,0.79,0.6,inactive
DMRT3,0.57,0.6,inactive
SNHG32,0.47,0.59,inactive
ITGB7,0.49,0.69,inactive
CYP27B1,1.4,0.57,inactive
MAPRE3,0.68,0.64,inactive
GPR68,0.48,0.7,inactive
OAS2,0.61,1,inactive
CDADC1,0.19,1.33,inactive
TMEM243,1.04,0.6,inactive
RXFP4,1.2,0.92,inactive
MFAP1,0.22,1.58,inactive
FAAP100,0.96,0.69,inactive
CFAP69,0.65,0.56,inactive
KMT2B,0.55,0.92,inactive
ABLIM1,0.57,1.03,inactive
C1orf56,0.96,0.72,inactive
VGF,0.51,1.17,inactive
XAGE5,0.3,1.34,inactive
GPR143,0.9,1,inactive
CAPZA1,0.83,0.52,inactive
NDUFS5,1.05,1.34,inactive
TSSK2,0.69,0.66,inactive

Sorted by “cell gain with vemurafenib” (high to low): 11 of the entries above.
Gene,cell gain with vemurafenib,lactate per cell with vemurafenib,call
GP6,0.92,0.74,inactive
KRTAP12-2,0.88,0.63,inactive
RTCA,0.6,1.05,inactive
CHRNA4,0.57,1.11,inactive
PRR14L,0.52,0.62,inactive
RFC4,0.48,0.35,inactive
CXXC4,0.39,1.73,inactive
SPMAP1,0.31,0.9,inactive
BCL3,0.29,2,inactive
NEK11,0.22,0.96,inactive
EDN3,0.11,0.2,active
